## Results from one PubChem assay

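Luminescence from an EWS-FLI1 target-promoter (NR0B1) reporter, set against a CMV-promoter reporter, two days after silencing single genes in TC32 Ewing sarcoma cells.
Each siRNA was applied at 20 nM.
A z-score of the log NR0B1-over-CMV signal, less the median of siRNAs with the same seed; more negative means a stronger specific loss of the NR0B1 reporter.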

This is part of the screen; most of the strongest results are not listed here.
Sequences are the guide (antisense) strand, without overhang.

| strand | target gene | seed-corrected z-score |
|---|---|---|
| `UGUUGACCCACUUUAUCAG` | TNFRSF10B | -0.6177 |
| `UAGUUUACUUCGGUCUUGC` | GPX4 | -0.7109 |
| `UAGCUGAAAUUCGUCUUUG` | AES | -0.4055 |
| `UCUUAUACUUGUAGAAAGC` | ERO1B | -0.2266 |
| `UAGGUAUCUGCGUUUCUUC` | FADS3 | 0.6726 |
| `UGCCUUAGCAGCAUAAAGC` | PGD | -0.3446 |
| `UGUCUUAACAGACUCAUCC` | GPRASP1 | 0.3157 |
| `UCGUUUACCACAGAGCACG` | THOP1 | -0.291 |
| `UAUAUAGCAUGGAUAAGCC` | GCNT4 | -0.5724 |
| `UGAUUAAUAGCAUUCUCCC` | ZNF425 | 0.3404 |
| `AAACUUCUGGUAGAAGUCC` | GRK6 | -0.1782 |
| `UACUGUUUCACGUCUUCUC` | GNAO1 | -0.3069 |
| `UAUCCAACAUAAUAAGUAC` | EMC9 | -1.52 |
| `AAUAGUGACGCGUUUGGCG` | HIST1H3I | 0.401 |
| `UUAAGUACAACUCUCGAAG` | LRRC8D | -0.6594 |
| `UCUGUACUCAGGACACUGC` | CHFR | -0.8548 |
| `UCUGGUACUGCGCAAAGUC` | SP5 | 0.293 |
| `AAAUGGUACAGUCCGUGCG` | ETV2 | 0.07316 |
| `AUCUUUUAAAUCCUUGGAC` | HSPA4 | -1.443 |
| `UCCUUGAACAAAUGCACCG` | SHOX | 0.8382 |
| `UACAAUAUGAGUUCCAGUG` | NGF | 0.5773 |
| `UGUGCUACAAGCAUCGCUG` | ADGRA3 | 0.1535 |
| `AAAUGGUAAACUGAUUAGG` | TGIF2 | 0.9094 |
| `UUCGUACAAAGAACUACUG` | GPALPP1 | -0.3699 |
| `AGGUUGUGAAGAGUUAUUC` | LRRC42 | -0.7887 |
| `AUUAAUAUUGAAGUUGUGG` | PRG2 | 1.373 |
| `UGCAUUACUGCUUCUGAGC` | PQBP1 | -0.09155 |
| `UCACUUUAAGUUGCUUCCG` | PDRG1 | 0.4693 |
| `UACAUGGUCACGUUAUCAC` | TNMD | -0.5034 |
| `UUCCGAAGGAUGUUGCACU` | SGF29 | -0.5543 |
| `AAGGGCGUGACGAUCUUGC` | PRR7 | -1.187 |
| `AUAGAUUGAAGAUCUGGUG` | PPP1CC | 0.3612 |
| `UACAAAUUCCCUCAAUCGC` | MRPL35 | 1.104 |
| `UGAGAUCCUUGGUAGUAGC` | ARL15 | -0.533 |
| `UACCAGAGAAUGGAUGUCG` | FAM134A | -0.1258 |
| `UUUAGCGUAGCAGGGAACC` | ALX4 | 0.2716 |
| `AAACCAACCACAAGGGUCG` | GDAP1 | 0.3135 |
| `UUCGGGAAACGGGUUAGGG` | KIFC2 | 0.8914 |
| `AUCGCUUCCAUCAUCUUGU` | ARHGEF17 | 0.6309 |
| `UACAGCAUUACCGUAUUUG` | COX7B | 0.1882 |
| `UACUAUCCAAGUAGUUUGC` | ADAM9 | 0.5017 |
| `UCUCUUAUAUUAGUAAUCG` | ANAPC1 | 0.04233 |
| `UCAUAUACCAGGUCGUAGG` | TSPAN32 | -0.4878 |
| `UCAAGCUCCCUUUUCAACC` | APOL2 | -0.1276 |
| `UUCGAUCACAUAGUCCCGC` | MCM2 | 0.668 |

3 of the entries, repeated:

strand,target gene,seed-corrected z-score
UCGUUUACCACAGAGCACG,THOP1,-0.291
UACCAGAGAAUGGAUGUCG,FAM134A,-0.1258
UACAGCAUUACCGUAUUUG,COX7B,0.1882

The results are deposited in PubChem (AID1159506; NCATS, 2015).